{
  "source": "patent US20170240599",
  "about": "(published 2017)",
  "assay": "general procedure: Fmoc solid-phase peptide synthesis; 2-chlorotrityl resin (CTC)",
  "details": "for crude HPLC purity: whole synthesis",
  "note": "Ends that are not written are not given here.",
  "data": [
    {"sequence": "CCEYCCNPACTGCY (cysteine pairing not given here)", "values": [
      {"measurement": "crude purity (method not given)", "setting": "oxidative folding step, HPLC", "result": 70, "unit": "%"},
      {"measurement": "final HPLC purity", "setting": "oxidative folding step, run 1", "result": 98.9, "unit": "%"},
      {"measurement": "final HPLC purity", "setting": "oxidative folding step, run 2", "result": ">99", "unit": "%"},
      {"measurement": "crude HPLC purity", "setting": "run 1", "result": 81, "unit": "%"},
      {"measurement": "crude HPLC purity", "setting": "run 2", "result": 80, "unit": "%"}
    ]}
  ]
}
